Laboratory results from paper PMC7886901.
Results are given in words; binding and its absence hold for the method and conditions named. In cells and extracts the contact can be indirect.

The chains behind the UniProt entries cited, without tags or fusion partners. Where a name states a change or a piece, a line headed by the entry shows the natural chain unless it says otherwise.
UniProt Q15326: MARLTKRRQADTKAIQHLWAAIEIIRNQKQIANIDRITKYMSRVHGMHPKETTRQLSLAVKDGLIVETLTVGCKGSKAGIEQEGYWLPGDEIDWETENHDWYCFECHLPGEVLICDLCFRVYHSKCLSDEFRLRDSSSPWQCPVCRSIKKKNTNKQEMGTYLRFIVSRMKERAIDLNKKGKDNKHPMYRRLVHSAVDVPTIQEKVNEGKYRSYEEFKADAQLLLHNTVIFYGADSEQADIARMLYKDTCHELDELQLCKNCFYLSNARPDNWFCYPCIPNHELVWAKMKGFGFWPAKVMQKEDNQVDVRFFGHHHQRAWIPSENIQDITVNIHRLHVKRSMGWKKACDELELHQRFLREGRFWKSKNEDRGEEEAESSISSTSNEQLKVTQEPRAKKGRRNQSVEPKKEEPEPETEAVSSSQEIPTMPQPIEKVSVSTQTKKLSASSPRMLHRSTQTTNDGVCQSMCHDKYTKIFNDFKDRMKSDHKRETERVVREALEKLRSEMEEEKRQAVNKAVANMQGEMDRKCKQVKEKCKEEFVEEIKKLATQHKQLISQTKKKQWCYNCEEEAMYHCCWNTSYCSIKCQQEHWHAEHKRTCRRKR

Molecular target: ZM with its MBTD1 segment deleted (ΔM), 3XHA-3XFlag-tagged (human) (UniProt Q15326)
Assay: co-IP; 3XHA-3XFlag-tagged ZM (WT or mutant) precipitated with anti-FLAG M2 magnetic beads from cleared lysates of HEK293T cells 48 h post-transfection, GFP-tagged Tip60 detected by western blot; IP175 buffer (175 mM NaCl, 0.1% NP40), Benzonase in the lysis, overnight at 4 °C

Human TIP60, GFP-tagged (from UniProt Q92993-1 1-513) (enzyme)
binding: no binding
